At least one compound was matched to its structure with a doubt left. Where a SMILES comes first, the peptide text is derived from it. The star is where a group is joined. X1 = Cn1cc(C2=C(c3cn(CCC(=O)*)c4ccccc34)C(=O)NC2=O)c2ccccc21
Target: protein kinase C (PKC)
Test: Enzyme test PKC with peptide substrate [Ser^25] PKC (19-31), phosphorus^32 phosphate incorporation
Assay type: biochemical
Conditions: Table 1; PKC purified from rat brain, 10 μM ATP, pH 7.5, 30° C., 5 minutes; read-out: Inhibition IC50, Enzyme Test PKC With Peptide Substrate [Ser^25] PKC (19-31)
Experimental: The enzyme protein kinase C (PKC) is purified from rat brain. Its activity is determined by way of the incorporation of phosphorus ^32 -labelled phosphate into a synthetic peptide which is derived from the PKC "pseudosubstrate" sequence (arnino acids 19 to 31 of the PKC sequence with alanine in position 25 substituted by serine). A reaction batch of 200 μL contains the following components: 50 mM Tris HCl, pH 7.5, 5 mM MgCl2, 1 mM DTT, 4 μM free Ca^2+, 10 μM ATP, 1 μg phosphatidylserine, 0.2 μg 1,2-diolein, as well as 0.3 μg peptide substrate. The batch is preincubated for 4 minutes at 30° C. and the reaction then started by the addition of 5 nm PKC. After incubation for 5 minutes at 30° C., the reaction is stopped with 0.73% H3 PO4, and the sample then filtered over a nitrocellulose filter (0.1 μm pore size). The phosphate incorporation is determined by means of Cerenkov counting in a scintillation counter. […]

| Compound | IC50 |
| --- | --- |
| C[C@H](NC(=O)CNC(=O)CNC(=O)CNC(=O)CCn1cc(C2=C(c3cn(C)c4ccccc34)C(=O)NC2=O)c2ccccc21)C(N)=O [Example 7e, 3-[3-[4-(1-methylindol-3-yl)-1H-pyrrole-2,5-dion-3-yl)-indol-1-yl)-propionylglycylglycylglycyl-L-alanylamide] (X1-GGGA-NH2) | 340 nM |
| C[C@H](NC(=O)CNC(=O)[C@H](CCCCN)NC(=O)CCn1cc(C2=C(c3cn(C)c4ccccc34)C(=O)NC2=O)c2ccccc21)C(N)=O [Example 7f, 3-[3-[4-(1-methylindol-3-yl)-1H-pyrrole-2,5-dion-3-yl)-indol-1-yl]-propionyl-L-lysylglycyl-L-alanyl-amide] | 570 nM |
